Consider 2 substances from patent US12428651B2, “Transcription factors to improve resistance to environmental stress in plants” (Board of Trustees of Michigan State University, priority 2016, dated 2025).

By UniProt entry, the sequences of proteins in these tests, tags left out. Where a name states a change or a piece, a line headed by the entry shows the natural chain unless it says otherwise.
UniProt Q9FIP9: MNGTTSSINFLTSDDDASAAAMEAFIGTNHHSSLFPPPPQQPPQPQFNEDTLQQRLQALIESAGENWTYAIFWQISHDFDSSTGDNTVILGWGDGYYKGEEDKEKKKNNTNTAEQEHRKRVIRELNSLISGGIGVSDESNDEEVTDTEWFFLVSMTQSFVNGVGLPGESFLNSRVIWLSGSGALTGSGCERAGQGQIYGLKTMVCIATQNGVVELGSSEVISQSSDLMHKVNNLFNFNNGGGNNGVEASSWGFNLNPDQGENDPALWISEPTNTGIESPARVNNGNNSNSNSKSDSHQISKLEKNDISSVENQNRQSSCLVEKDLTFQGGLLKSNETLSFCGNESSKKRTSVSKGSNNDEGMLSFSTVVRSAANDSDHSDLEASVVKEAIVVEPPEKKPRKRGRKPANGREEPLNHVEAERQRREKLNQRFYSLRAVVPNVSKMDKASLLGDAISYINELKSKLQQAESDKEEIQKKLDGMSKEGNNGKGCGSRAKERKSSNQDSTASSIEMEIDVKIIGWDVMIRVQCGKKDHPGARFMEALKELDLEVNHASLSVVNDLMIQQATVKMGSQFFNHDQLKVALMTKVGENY

The test addresses T1, MED25 subunit of the Mediator of RNA polymerase II transcription complex (UniProt Q7XYY2).
T1 sequence (looked up): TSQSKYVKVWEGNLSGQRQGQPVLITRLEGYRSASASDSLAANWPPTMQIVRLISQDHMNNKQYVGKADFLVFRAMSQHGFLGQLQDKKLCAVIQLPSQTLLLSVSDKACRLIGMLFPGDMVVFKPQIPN
Briefly: yeast two-hybrid, MED25 bait and MYC3 mutant prey.

No constants are given. Whether binding was seen depends on the method and setting. Some binding calls cover weakened binding; strength is not graded here.

As for “MYC3^E148A/M155A (from UniProt Q9FIP9 1-592)”, the binding entry is recorded as “binds”. Under MYC3^L152A (from UniProt Q9FIP9 1-592) stands “binds”.
